In a melting point compilation (Tetko et al.; mined from patent text by program, amines drawn as free bases though some values may be those of a salt):

## CN(C1c2cc(OCCCC(F)(F)F)ccc2OC(C)(C)C1O)S(C)(=O)=O (stereo unspecified)
  melting point: 161 to 163 °C
